# The list shows a part of the results.
# Key:
# Assay in all cases: glycan array binding signal (z-score within array); higher = stronger binding
# Conditions in all cases: glycan notation: IUPAC condensed, linker removed
# [1] = target: GlcNAc(a1-6)Gal(b1-4)GlcNAc
# Procedure, shortened: (§1)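 The binding signal is a Z-score computed within each array and averaged over linkers. Arrays of the same protein sequence at different concentrations or buffers were also averaged together. Data originate from 3228 arrays in the Consortium for Functional Glycomics database, kept only where the protein sequence was available.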
# [2] = target: GlcNAc(b1-2)Gal(b1-3)GalNAc
# Procedure, shortened: as §1
# [3] = target: GlcNAc(b1-2)Man(a1-3)[GlcNAc(b1-2)Man(a1-6)]Man(b1-4)GlcNAc(b1-4)GlcNAc
# Procedure, shortened: as §1
# [4] = target: GlcNAc(b1-2)Man(a1-3)[GlcNAc(b1-2)Man(a1-6)]Man(b1-4)GlcNAc(b1-4)[Fuc(a1-6)]GlcNAc
# Procedure, shortened: as §1
# [5] = target: GlcNAc(b1-2)Man(a1-3)[GlcNAc(b1-4)][GlcNAc(b1-2)Man(a1-6)]Man(b1-4)GlcNAc(b1-4)GlcNAc
# Procedure, shortened: as §1
# [6] = target: GlcNAc(b1-2)Man(a1-3)[GlcNAc(b1-4)][GlcNAc(b1-2)Man(a1-6)]Man(b1-4)GlcNAc(b1-4)[Fuc(a1-6)]GlcNAc
# Procedure, shortened: as §1
# [7] = target: GlcNAc(b1-2)[GlcNAc(b1-4)]Man(a1-3)[GlcNAc(b1-2)Man(a1-6)]Man(b1-4)GlcNAc(b1-4)GlcNAc
# Procedure, shortened: as §1
# [8] = target: GlcNAc(b1-2)[GlcNAc(b1-4)]Man(a1-3)[GlcNAc(b1-4)][GlcNAc(b1-2)Man(a1-6)]Man(b1-4)GlcNAc(b1-4)GlcNAc
# Procedure, shortened: as §1
# [9] = target: GlcNAc(b1-2)[GlcNAc(b1-4)]Man(a1-3)[GlcNAc(b1-4)][GlcNAc(b1-2)[GlcNAc(b1-6)]Man(a1-6)]Man(b1-4)GlcNAc(b1-4)GlcNAc
# Procedure, shortened: as §1
# [10] = target: GlcNAc(b1-2)[GlcNAc(b1-4)]Man(a1-3)[GlcNAc(b1-4)][GlcNAc(b1-2)[GlcNAc(b1-6)]Man(a1-6)]Man(b1-4)GlcNAc(b1-4)[Fuc(a1-6)]GlcNAc
# Procedure, shortened: as §1
# [11] = target: GlcNAc(b1-2)[GlcNAc(b1-6)]Man(a1-6)[GlcNAc(b1-2)Man(a1-3)]Man(b1-4)GlcNAc(b1-4)GlcNAc
# Procedure, shortened: as §1
# [12] = target: GlcNAc(b1-2)[GlcNAc(b1-6)]Man(a1-6)[GlcNAc(b1-2)Man(a1-3)]Man(b1-4)GlcNAc(b1-4)[Fuc(a1-6)]GlcNAc
# Procedure, shortened: as §1
# [13] = target: GlcNAc(b1-2)[GlcNAc(b1-6)]Man(a1-6)[GlcNAc(b1-4)][GlcNAc(b1-2)Man(a1-3)]Man(b1-4)GlcNAc(b1-4)GlcNAc
# Procedure, shortened: as §1
# [14] = target: GlcNAc(b1-3)Fuc
# Procedure, shortened: as §1
# [15] = target: GlcNAc(b1-3)Gal
# Procedure, shortened: as §1
# [16] = target: GlcNAc(b1-3)Gal(b1-3)GalNAc
# Procedure, shortened: as §1
# [17] = target: GlcNAc(b1-3)Gal(b1-4)Glc
# Procedure, shortened: as §1
# [18] = target: GlcNAc(b1-3)Gal(b1-4)GlcNAc
# Procedure, shortened: as §1
# [19] = target: GlcNAc(b1-3)Gal(b1-4)GlcNAc(b1-2)Man(a1-3)[GlcNAc(b1-3)Gal(b1-4)GlcNAc(b1-2)Man(a1-6)]Man(b1-4)GlcNAc(b1-4)GlcNAc
# Procedure, shortened: as §1
# [20] = target: GlcNAc(b1-3)Gal(b1-4)GlcNAc(b1-2)Man(a1-3)[GlcNAc(b1-3)Gal(b1-4)GlcNAc(b1-2)Man(a1-6)]Man(b1-4)GlcNAc(b1-4)[Fuc(a1-6)]GlcNAc
# Procedure, shortened: as §1
# [21] = target: GlcNAc(b1-3)Gal(b1-4)GlcNAc(b1-2)[GlcNAc(b1-3)Gal(b1-4)GlcNAc(b1-6)]Man(a1-6)[GlcNAc(b1-3)Gal(b1-4)GlcNAc(b1-2)Man(a1-3)]Man(b1-4)GlcNAc(b1-4)GlcNAc
# Procedure, shortened: as §1
# [22] = target: GlcNAc(b1-3)Gal(b1-4)GlcNAc(b1-3)Gal(b1-4)GlcNAc
# Procedure, shortened: as §1
binder,measurement,setting,value
"LysMD3 (Homo sapiens), Q7Z3D4 (protein) MAGRHQNRSFPLPGVQSSGQVHAFGNCSDSDILEEDAEVYELRSRGKEKVRRSTSRDRLDDIIVLTKDIQEGDTLNAIALQYCCTVADIKRVNNLISDQDFFALRSIKIPVKKFSSLTETLCPPKGRQTSRHSSVQYSSEQQEILPANDSLAYSDSAGSFLKEVDRDIEQIVKCTDNKRENLNEVVSALTAQQMRFEPDNKNTQRKDPYYGADWGIG",glycan array binding signal (z-score),[1],1.03
same,glycan array binding signal (z-score),[2],0.942
same,glycan array binding signal (z-score),[3],-0.021
same,glycan array binding signal (z-score),[4],0.662
same,glycan array binding signal (z-score),[5],0.189
same,glycan array binding signal (z-score),[6],0.374
same,glycan array binding signal (z-score),[7],-0.423
same,glycan array binding signal (z-score),[8],0.291
same,glycan array binding signal (z-score),[9],0.661
same,glycan array binding signal (z-score),[10],-0.54
same,glycan array binding signal (z-score),[11],0.369
same,glycan array binding signal (z-score),[12],1.6
same,glycan array binding signal (z-score),[13],0.277
same,glycan array binding signal (z-score),[14],-0.685
same,glycan array binding signal (z-score),[15],-0.379
same,glycan array binding signal (z-score),[16],1.5
same,glycan array binding signal (z-score),[17],0.983
same,glycan array binding signal (z-score),[18],-0.096
same,glycan array binding signal (z-score),[19],1.01
same,glycan array binding signal (z-score),[20],1.83
same,glycan array binding signal (z-score),[21],0.716
same,glycan array binding signal (z-score),[22],0.418

# 2 entries from above, as tab-separated lines:
binder	measurement	setting	value
LysMD3 (Homo sapiens), Q7Z3D4 (protein) MAGRHQNRSFPLPGVQSSGQVHAFGNCSDSDILEEDAEVYELRSRGKEKVRRSTSRDRLDDIIVLTKDIQEGDTLNAIALQYCCTVADIKRVNNLISDQDFFALRSIKIPVKKFSSLTETLCPPKGRQTSRHSSVQYSSEQQEILPANDSLAYSDSAGSFLKEVDRDIEQIVKCTDNKRENLNEVVSALTAQQMRFEPDNKNTQRKDPYYGADWGIG	glycan array binding signal (z-score)	[4]	0.662
same	glycan array binding signal (z-score)	[5]	0.189

# Reference: the supplement of paper PMC8728848
